The assay concerns the target Flag-tagged cortactin (UniProt Q14247). In words: co-IP; 293T cells co-transfected with Flag-cortactin and Myc-Fe65 or deletion constructs; cellular extracts (20 mM Tris-HCl pH 7.5, 150 mM NaCl, 1 mM EDTA, 1% NP-40) incubated with anti-Flag beads overnight at 4 °C; immunoblot. On the technique in general: In western blotting, separated proteins are transferred to a membrane and probed.

Protein sequences, listed by entry. Tags and fused reporters are not part of them.
UniProt Q14247: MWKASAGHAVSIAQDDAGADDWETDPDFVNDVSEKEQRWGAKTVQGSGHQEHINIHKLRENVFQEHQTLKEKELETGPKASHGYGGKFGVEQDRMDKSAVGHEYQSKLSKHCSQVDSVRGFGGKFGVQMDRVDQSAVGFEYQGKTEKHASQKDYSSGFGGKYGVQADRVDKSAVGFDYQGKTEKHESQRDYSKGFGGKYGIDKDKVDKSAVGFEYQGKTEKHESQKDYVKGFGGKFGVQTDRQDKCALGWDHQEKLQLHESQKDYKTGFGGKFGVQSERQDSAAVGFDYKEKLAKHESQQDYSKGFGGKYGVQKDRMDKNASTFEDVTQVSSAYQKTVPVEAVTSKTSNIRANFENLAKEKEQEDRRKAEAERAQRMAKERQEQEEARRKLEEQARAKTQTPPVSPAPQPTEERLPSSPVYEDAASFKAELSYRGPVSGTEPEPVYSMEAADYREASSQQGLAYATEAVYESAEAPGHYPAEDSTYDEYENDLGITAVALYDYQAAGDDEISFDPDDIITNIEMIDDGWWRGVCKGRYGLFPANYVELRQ

Results are given in words; binding and its absence hold for the method and conditions named. Binding seen in cells or lysates may run through a third protein. Some binding calls cover weakened binding; strength is not graded here. Tags and fused reporters may be left off the sequences shown.

B1: Myc-tagged Fe65, full length (protein, UniProt O00213 1-710)
chain: MSVPSSLSQSAINANSHGGPALSLPLPLHAAHNQLLNAKLQATAVGPKDLRSAMGEGGGPEPGPANAKWLKEGQNQLRRAATAHRDQNRNVTLTLAEEASQEPEMAPLGPKGLIHLYSELELSAHNAANRGLRGPGLIISTQEQGPDEGEEKAAGEAEEEEEDDDDEEEEEDLSSPPGLPEPLESVEAPPRPQALTDGPREHSKSASLLFGMRNSAASDEDSSWATLSQGSPSYGSPEDTDSFWNPNAFETDSDLPAGWMRVQDTSGTYYWHIPTGTTQWEPPGRASPSQGSSPQEESQLTWTGFAHGEGFEDGEFWKDEPSDEAPMELGLKEPEEGTLTFPAQSLSPEPLPQEEEKLPPRNTNPGIKCFAVRSLGWVEMTEEELAPGRSSVAVNNCIRQLSYHKNNLHDPMSGGWGEGKDLLLQLEDETLKLVEPQSQALLHAQPIISIRVWGVGRDSGRERDFAYVARDKLTQMLKCHVFRCEAPAKNIATSLHEICSKIMAERRNARCLVNGLSLDHSKLVDVPFQVEFPAPKNELVQKFQVYYLGNVPVAKPVGVDVINGALESVLSSSSREQWTPSHVSVAPATLTILHQQTEAVLGECRVRFLSFLAVGRDVHTFAFIMAAGPASFCCHMFWCEPNAASLSEAVQAACMLRYQKCLDARSQASTSCLPAPPAESVARRVGWTVRRGVQSLWGSLKPKRLGAHTP
Regarding B1, the binding entry is given as “binds”.

Values taken from publication PMC4499803.
